Data reported in patent US20130029956A1, “NEW METHOD” (ASTRAZENECA AB, priority 1997, published 2013).
At least one compound was matched to its structure with a doubt left.

Tests used:
asthmatic children [1] = assay: Phase III study of four dose regimens of budesonide nebulizing suspension and placebo in asthmatic children (Example 2); assay type: in vivo, human (children six months to eight years); conditions: 0.5 mg BID versus placebo
Method: The objectives of the study were to compare the relative efficacy and safety of budesonide in a nebulizing suspension (0.25 mg administered once a day (QD), 0.25 mg administered twice per day (BID), 0.5 mg BID or 1.0 mg QD) in pediatric asthmatic patients aged six months to eight years.
(§1) This was a multicenter, randomized double-blind, placebo-controlled, parallel-group study.
Patients were mild to moderate asthmatic children aged six months to eight years of age with a diagnosis of asthma as defined by the National Institutes of Health of the U.S. Department of Health and Human Services, including: […]
Secondary efficacy variables were: (a) the number of days breakthrough (bronchodilator) medication was used; (b) spirometry test variables, including FEV1, FEF25-75, and FVC performed at clinic visits in the subset of patients capable of performing spirometry testing; (c) PEF measured daily in the morning and evening in the subset of patients capable of performing PEFs; and (d) proportion of patient discontinuations from the study. […]
Analysis of variance was used to compare differences between treatment groups for all efficacy variables, with the exception of patient discontinuations from the study, which was analyzed using Fisher's exact test. […]
A total of 471 patients were evaluated for efficacy (all patients treated). […]

asthmatic children [2] = assay: Phase III study of three dose levels of once-a-day budesonide nebulizing suspension and placebo in asthmatic children (Example 1); assay type: in vivo, human (children six months to eight years)
Method: The objectives of the study were to compare the relative efficacy and safety of a nebulizing suspension of budesonide (containing 0.25 mg, 0.5 mg, or 1.0 mg of budesonide per dose), administered once a day, in pediatric asthmatic patients aged six months to eight years.
as §1
Patients were asthmatic children who had not been treated with steroids in the 30 days prior to initiation of the study treatment.
Budesonide was administered once per day as a nebulized suspension, at 0.25 mg, 0.5 mg, or 1.0 mg per administration, via a Pari LC-Jet Plus® nebulizer connected to a Pari Master® compressor (Pari Respiratory Equipment, Inc., Richmond, Va.) with a face mask or a mouth piece. The placebo was the solvent used for the budesonide suspension (0.1 mg disodium edetate, 8.5 mg NaCl, 0.2 mg polysorbate, 0.28 mg anhydrous citric acid, and 0.5 mg sodium citrate per 1 ml water) but without budesonide.
Primary efficacy variables were mean changes from baseline in daytime and nighttime asthma symptom scores over the 12 week treatment phase. The symptom scores are based on the subjective evaluation by the patients or their parents based on a 0-3 rating system in which 0=no symptoms, 1=mild symptoms, 2=moderate symptoms, and 3=severe symptoms.
Secondary efficacy variables were: (a) patient outcomes, including the proportion of patients who were discontinued from the study for any reason and the proportion of patients who were discontinued from this study due to worsening asthma; (b) the number of days breakthrough (bronchodilator) medication was used; (c) spirometry test variables, including FEV1, FEF25-75 (forced expiratory flow during the middle half of the forced vital capacity in liters per second) and FVC (forced vital capacity in liters), performed at clinic visits in the subset of patients capable of performing spirometry testing; (d) PEF (peak expiratory flow in liters per minute) measured daily in the morning and evening in the subset of patients capable of performing PEF testing; (e) changes in health status measurements, including the Modified Functional Status II Scale Child Health Status Scale and the RAND General Health Index; and (f) differences in asthma-related health care utilization and indirect health care costs. […]
Analysis of variance was used to compare differences between treatment groups for all efficacy variables, with the exception of patient outcomes, which were analyzed using Fisher's exact test. […]

Compound: CCCC1O[C@@H]2C[C@H]3[C@@H]4CCC5=CC(=O)C=C[C@]5(C)[C@H]4[C@@H](O)C[C@]3(C)[C@]2(C(=O)CO)O1 (some centres unmarked) [Budesonide, budesonide]
- FVC improvement (asthmatic children [1]): statistical significance achieved
- health status: FS-II(R) General score (asthmatic children [2]; 0.25 mg once a day, weeks 4 and 12): clinically and statistically significant improvements compared to placebo
- FVC improvements (asthmatic children [2]; 0.5 mg once a day versus placebo): statistically significant compared to placebo
- health status: FS-II(R) Specific scores (asthmatic children [2]; 0.5 mg once a day, week 12): statistical significance compared to placebo
- RAND General Health Index scores (asthmatic children [2]; all budesonide treatment groups versus placebo): improvements
